## Primary screen of a compound library

Sequences of proteins named here, by UniProt entry; tags and fusion partners are left off.
UniProt E9BF75, entry or part of it: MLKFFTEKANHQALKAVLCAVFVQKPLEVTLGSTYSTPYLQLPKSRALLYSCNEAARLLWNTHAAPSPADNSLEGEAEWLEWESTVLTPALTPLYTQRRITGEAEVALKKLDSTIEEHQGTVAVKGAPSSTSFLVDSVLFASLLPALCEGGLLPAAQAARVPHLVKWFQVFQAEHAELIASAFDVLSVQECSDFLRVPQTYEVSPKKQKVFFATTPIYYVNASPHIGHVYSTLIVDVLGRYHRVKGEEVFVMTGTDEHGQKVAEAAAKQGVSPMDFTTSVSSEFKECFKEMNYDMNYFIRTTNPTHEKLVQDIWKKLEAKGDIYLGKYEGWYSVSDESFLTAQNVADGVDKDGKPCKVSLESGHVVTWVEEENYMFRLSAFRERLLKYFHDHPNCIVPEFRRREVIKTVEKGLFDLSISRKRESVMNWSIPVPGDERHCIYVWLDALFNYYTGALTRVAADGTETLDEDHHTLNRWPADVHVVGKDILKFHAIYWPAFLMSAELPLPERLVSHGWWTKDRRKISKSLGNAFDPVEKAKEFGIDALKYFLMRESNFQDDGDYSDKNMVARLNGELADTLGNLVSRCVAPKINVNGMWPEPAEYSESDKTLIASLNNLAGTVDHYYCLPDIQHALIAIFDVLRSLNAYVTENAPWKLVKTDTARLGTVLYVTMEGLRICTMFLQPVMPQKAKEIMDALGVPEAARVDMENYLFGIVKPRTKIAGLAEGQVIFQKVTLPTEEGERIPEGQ

Source: ChEMBL document CHEMBL3988442, “University of Dundee, Small-Polar-MMV Screening Library” (2021).

A: 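Primary screen of methionyl-tRNA synthetase; the read-out is not stated. Target: Methionyl-tRNA synthetase (putative), Leishmania donovani (UniProt E9BF75). The test concentration is not given. Values are per cent inhibition. Of about 68,000 compounds tested this way, about 24 (0.035%) reached 50% or more in at least one test.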
B: 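Assay on Mycobacterium tuberculosis, filed only as a heat shock assay from Cornell; the read-out is not stated. The concentration is filed as 10 mM, unlikely as a test dose, so the dose is not known. Direction is inferred from retests: higher values go with stronger inhibition. Size under these conditions: about 69,000 compounds, about 930 of them at 50% or above in at least one test.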

All values are in %. The controls that fix the scale are not given in the record; negative values are as filed. The compounds are a random part of those screened. A dash means the value is not listed here; it may have been measured.

| Compound | A | B |
|---|---|---|
| `Cc1ccc(N2CCc3ncnc(N(C)C)c3CC2)nn1` | 12.99 | -2.866 |
| `Fc1ccc(N2CCOC(Cc3cccnc3)C2)cc1` (configuration not stated) | 14.15 | 7.139 |
| `COc1cc(S(=O)(=O)N2CCc3cc(Br)ccc32)cc(C(=O)O)c1OC` | -0.289 | -16.59 |
| `CC(C)C(=O)NS(=O)(=O)c1ccc(C#N)cc1C(F)(F)F` | 18.89 | -8.16 |
| `COc1ccc(CCNC(=O)C2CCOC2)c(Cl)c1` (configuration not stated) | 15.6 | -12.54 |
| `COCC(=O)N1CCC2(CC1)CC(COC)N(c1ncccn1)C2.O=C(O)C(F)(F)F` (configuration not stated) | - | -27.09 |
| `CNC(=O)[C@@]12CCC3(CCN(S(C)(=O)=O)CC3)[C@@H]1CN(S(C)(=O)=O)C2` | 7.807 | - |
| `O=S(=O)(c1ccc(F)cc1F)N1CCCCC1c1nnc2n1CCCC2` (configuration not stated) | 12.93 | -65.13 |
| `Cc1nn(C)c2ncc(NC(=O)N3CCNC(=O)C3)cc12` | 16.02 | -17.14 |
| `CC(C)Oc1cccc(CNC(=O)NC2(CO)CCCC2)c1` | 5.722 | 3.664 |
| `COc1ccc(CN2CCO[C@H]3[C@H](Oc4ccccn4)CC[C@@H]32)cc1` | 17.04 | - |
| `Cc1nccc(C(=O)N2CCCN(Cc3cnn(C(C)C)c3)CC2)n1` | 20.95 | 0.5575 |
| `Cc1noc(CN(Cc2cccs2)C2CC2)n1` | 1.362 | -16.22 |
| `O=C(Nc1ccccc1C(=O)NCCCN1CCOCC1)c1ccco1` | 13.68 | -5.288 |
| `Cc1cc(C)n(Cc2cccc(C(=O)NCCN3CCOCC3)c2)n1` | 4.724 | -10.53 |
| `CC(C)CCN1CCNC(=O)C1CC(=O)N1CCc2sccc2C1` (configuration not stated) | 13.39 | 20.95 |
| `Cc1nc(CNC(=O)NCC2(C)CCCc3ccccc32)no1` (configuration not stated) | 5.93 | 9.325 |
| `Cc1cc(C(=O)N2CCCC2c2noc(C)n2)[nH]n1` (configuration not stated) | 6.024 | 3.42 |
| `CC(C)CN1CCc2[nH]cnc2C12CCN(C(=O)c1ccnn1C)CC2` | 17.6 | 1.11 |
| `Cc1ccc(CN(C)c2cc(N3CCCC3CO)ncn2)s1` (configuration not stated) | 14.21 | -35.7 |
| `Cc1ccc(CN2CCCC3(CCCC(=O)N3)C2)s1` (configuration not stated) | 11.67 | - |
| `CC(Cn1ccnc1)NS(=O)(=O)c1ccc(C#N)c(Cl)c1` (configuration not stated) | 10.89 | -5.859 |
| `CNS(=O)(=O)c1ccc(C(=O)NCCc2ccccn2)cc1` | 6.299 | 3.031 |
| `N#Cc1ccc(N2CCN(c3ccc4nncn4n3)CC2)nc1` | 7.521 | -18.76 |
| `c1ccc2[nH]c(C3CCN(Cc4nnc(C5CC5)o4)CC3)cc2c1` | 18.66 | 3.02 |
| `[H][C@]12CN(C(=O)OCCOC)CCN1C[C@@H](CO)[C@@H]2c1ccccc1` | - | 1.913 |
| `COCCC(=O)N1CCCC1c1cccc(C)c1C` (configuration not stated) | 1.736 | 14.98 |
| `Cc1ccc(-c2nc(CN3CCN(CCO)CC3)co2)cc1` | 19.32 | -4.788 |
| `O=C(Nc1ccnc2ccnn12)c1ccc(N2CCC(O)CC2)cc1` | 21.63 | 8.731 |
| `c1nn(C2CCCCC2)cc1-c1cncn1CCCN1CCCCC1` | 9.884 | - |
| `CC(C)(O)CN1CCN(C(=O)c2cnn(-c3ccccc3F)c2)CC1` | 22.28 | -24.31 |
| `CCN1CCOCC2(CCCN(C(=O)c3cccc(O)c3)C2)C1` (configuration not stated) | 9.936 | -9.741 |
| `COc1ccc(CNC(=O)CCc2nnc3ccccn3c2=O)cc1` | 9.677 | -7.644 |
| `COCC(=O)NC1CC2(CCN(CCN(C)C)CC2)c2ccccc21` (configuration not stated) | 20.67 | 10.28 |
| `CC(C)NC(=O)NCCCc1cc(N)n(-c2ccccc2)n1` | 12.32 | -1.155 |
| `[H][C@@]12COC[C@@H](C(=O)NC)[C@]1([H])CN(C(=O)COc1ccccc1)C2` | - | -1.788 |
| `Cc1nc2ccccc2c(=O)n1CCC(=O)N1CCNC(=O)C1` | 18.37 | -4.205 |
| `Cc1cnn(CC2CCCCN2Cc2cc(C)on2)c1` (configuration not stated) | 11.66 | 32.3 |
| `O=C1NCCN(C(=O)c2cn3ccsc3n2)C1c1cccc(F)c1` (configuration not stated) | 15.33 | -10.24 |
| `O=C(CCC1CCCCC1)NS(=O)(=O)CC1CC1` | 3.495 | 2.509 |
| `CCc1nccn1CCC(=O)N1CC[C@@H](c2sccc2C)[C@H](O)C1` | 10.65 | 3.859 |
| `CCc1cc(N[C@@H]2CC[C@@H](N)C2)n2nc(C)c(C)c2n1` | 42.78 | 27.39 |
| `CCc1nc2n(n1)CC(NCc1nc3ccccc3nc1C)CC2` (configuration not stated) | 6.949 | -147.2 |
| `Cc1c(Cl)cccc1S(=O)(=O)N1CCC2(CC1)OCCS2` | 8.873 | -6.041 |
| `CCS(=O)(=O)N1CCCn2nnc(Cn3cccc3)c2C1` | 14.29 | 26.69 |
| `COc1ccc(C(=O)N2CCCC3(CCCC(=O)N3C)C2)cc1` (configuration not stated) | 2.885 | -0.3502 |
| `CCN(CC)c1ccc(C(=O)N2CCCC(n3cncn3)C2)cn1` (configuration not stated) | 5.237 | 2.389 |
| `Cc1cccc(CN2CCOC3(CCCN(CC(=O)N(C)C)C3)C2)n1` (configuration not stated) | 20.17 | - |
| `CC(C)c1cc(C(=O)N2Cc3ccccc3CC2C(=O)O)nn1C` (configuration not stated) | 9.041 | -20.55 |
| `CC(NC(=O)NCCNc1ccccn1)c1cccs1` (configuration not stated) | 23.08 | -11.38 |
| `O=C(NCc1cncc2c1CCN(Cc1ccc(F)cc1)C2)C1CC1` | 9.774 | - |
| `CC(O)CN1CCC(CNCc2ccccc2Br)CC1` (configuration not stated) | 9.202 | -3.604 |
| `CN(C)C(=O)c1cccnc1-c1ccc2c(c1)OCO2` | 16.88 | 16.97 |
| `Cc1nn(C)c(C)c1S(=O)(=O)N(CC(N)=O)CC(C)C` | 11.34 | 17.12 |
| `CCOc1ncc(NC(=O)c2ccco2)c(OCC)n1` | 4.317 | 6.06 |
| `Cc1cccc2ncn(C(C)Cn3cccn3)c(=O)c12` (configuration not stated) | -4.604 | 4.036 |
| `Cc1cc(C(=O)N2CCCC3(COCCN(c4ccccc4)C3)C2)[nH]n1` (configuration not stated) | 16.67 | 5.134 |
| `COC(=O)C(NC(=O)C1CCC1)c1cc(F)ccc1F` (configuration not stated) | 21.02 | -0.6555 |
| `O=C(c1ccncc1F)N1C[C@@H]2OCCN(CC3CC3)[C@@H]2C1` | 11.59 | - |
| `CS(=O)(=O)Cc1cc(Cl)c2c(c1)OCCCO2` | 15.78 | 8.511 |
| `CSc1nc(C2CC2)nc(C)c1C(=O)NCc1ncc(C)o1` | 20.83 | -9.915 |
| `COCc1cccc(C(=O)N2CCCN(C(=O)OCC(C)C)CC2)c1` | 8.696 | -0.4244 |
| `CCc1nnc2n1CCN(C(=O)CN(C)C1CC1)C2` | 10.34 | -21.9 |
| `Cc1ccc(CN2CCOC(c3cnccn3)C2)s1` (configuration not stated) | 10.25 | 8.037 |
| `Cc1cc(C)c2cc(C(=O)N3CCN(Cc4ccco4)CC3)[nH]c2c1` | 7.357 | 16.67 |
| `O=C(NCc1cc[nH]n1)N(CCCO)C1CCc2ccccc21` (configuration not stated) | 9.091 | -8.682 |
| `Cc1ccc(CN(C)C(=O)c2ccc(NC3CC3)nc2)o1` | 17.71 | 16.68 |
| `O=C(NCc1nncn1C1CCCCC1)C1COc2ccccc2O1` (configuration not stated) | 17.35 | 1.689 |
| `[H][C@@]12COC[C@]1(COc1cccnc1)CN(C(=O)c1ncccn1)C2` | - | 26.01 |
| `CN(C)c1cc2c(nn1)CCN(C(=O)c1cc3c(s1)CCCC3)C2` | 27.62 | 14.28 |
| `CC(=O)Nc1ccc(C(=O)N2CCOc3nc(C)ccc32)cc1` | 17.36 | -0.8263 |
| `O=C(c1ccco1)N1CCC2(CCCN(c3ncccn3)C2)C1` (configuration not stated) | -4.651 | - |
| `CCc1c(C)nc(-n2nc(-c3cccs3)cc2N)[nH]c1=O` | 9.887 | 106.4 |
| `Cc1ccn(-c2ccc(C(=O)N3CCCC(n4ccnc4)C3)cc2)n1` (configuration not stated) | 1.408 | -3.191 |
| `Cc1ccc(C(N)c2cccc(S(C)(=O)=O)c2)c(C)c1.Cl` (configuration not stated) | - | 1.87 |
| `CN1CC2(CCN(Cc3cccnc3)CC2)c2cc(F)ccc21` | 16.79 | 1.198 |
| `O=C(O)[C@@H]1CN(C(=O)c2ccc(F)c(F)c2)C[C@H]1c1cccc(F)c1` | 9.202 | -1.274 |
| `CCN(CC)C(=O)CNC(=O)c1cnc(-c2ccccc2)nc1` | 4.982 | 6.623 |
| `c1cnc(N2CCN3C[C@H](Oc4cncnc4)C[C@H]3C2)nc1` | 9.341 | - |
| `Cc1ncsc1CN1CCOC(C)(C(=O)N(C)C)C1` (configuration not stated) | -1.05 | -16.31 |
| `Cn1nc(C2CCCN(Cc3cc(F)cc(F)c3)C2)c2nccnc21` (configuration not stated) | 9.375 | - |